The values below come from patent publication US12082907B2, “Systems, methods, and apparatus for multichannel imaging of fluorescent sources in real-time” (Memorial Sloan Kettering Cancer Center, priority 2013, dated 2024).

The data set is described as follows: Fluorescence detection sensitivity of serial dilutions at 10 cm from the detector face of the camera system. The data set is classed as physicochemical. The settings on record: for fluorescence signal intensity (detection sensitivity): distance 10 cm.

Turning to `CC1(C)C(/C=C/C=C/C=C/C=C2\N(CCCCS(=O)(=O)O)c3ccc4ccccc4c3C2(C)C)=[N+](CCCCS(=O)(=O)[O-])c2ccc3ccccc3c21` [ICG, indocyanine green], the “maximum detection sensitivity (threshold concentration per particle volume)” value (10 cm from the detector face, 6 nm (C′ dots) vs 100 nm (ICG) particles) is listed as 1000 M/meter^3. In addition, the “fluorescence signal intensity (detection sensitivity)” value is listed as “>” (NIR settings 80 W_14 dB_46 ms, dilution 1:2, concentration 7.5 uM); “>” (NIR settings 80 W_14 dB_46 ms, dilution 1:10, concentration 1.5 uM); 34 (NIR settings 80 W_14 dB_46 ms, dilution 1:100, concentration 0.15 uM); 0 (NIR settings 80 W_14 dB_46 ms, dilution 1:210, concentration 0.071 uM); “>” (NIR settings 80 W_14 dB_46 ms, non-diluted, concentration 15 uM); 35 (NIR settings 100 W_14 dB_80 ms, dilution 1:210, concentration 0.071 uM). The “fluorescence signal intensity (detection sensitivity)” value is, setting by setting: (NIR settings 100 W_14 dB_80 ms, dilution 1:500, concentration 0.03 uM) 21; (NIR settings 100 W_14 dB_80 ms, dilution 1:1000, concentration 15 nM) 0; (NIR settings 100 W_14 dB_80 ms, dilution 1:10000, concentration 1.5 nm) 0.
